By UniProt entry, the sequences of proteins in these tests, tags left out.
UniProt P48727: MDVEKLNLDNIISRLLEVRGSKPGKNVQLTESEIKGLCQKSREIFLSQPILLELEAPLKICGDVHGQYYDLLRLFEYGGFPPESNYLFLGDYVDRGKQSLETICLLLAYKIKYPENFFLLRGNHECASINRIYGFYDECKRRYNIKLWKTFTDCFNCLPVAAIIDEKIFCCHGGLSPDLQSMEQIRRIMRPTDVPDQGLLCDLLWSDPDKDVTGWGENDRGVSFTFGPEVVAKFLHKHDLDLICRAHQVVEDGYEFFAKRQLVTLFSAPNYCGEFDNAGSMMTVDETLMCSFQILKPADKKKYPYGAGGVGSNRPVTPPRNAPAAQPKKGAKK

According to publication PMC12714725:

Target: mNeonGreen tagged GSP-2 (C. elegans) (UniProt P48727)
Experiment: affinity purification with mass spectrometry; mNeonGreen::GSP-2 precipitated from about 3 mg embryonic extract with mNeonGreen-Trap Agarose beads, 4 °C, 1.5 h; IP buffer 100 mM KCl, 50 mM Tris pH 7.5, 1 mM MgCl2, 1 mM DTT, 5% glycerol, 0.2% NP-40, 1 mM EDTA; N2 strain as control; triplicate; DIA mass spectrometry

- binding: binds
Substance: SZY-2(I-2) (from UniProt Q9N537)

No constants are given. Whether binding was seen depends on the method and setting. In cells and extracts the contact can be indirect. These calls come from enrichment with a bait or labelling near it, and not all partners need be listed.
